Test results taken from publication PMC10978903.
These are yes or no findings as the source states them, for the method shown. In cells and extracts the contact can be indirect. Some results given as binding are weak or reduced against the parent protein; the word gives no strength. Tags and fused reporters may be left off the sequences shown.

T1: Flag-GR50-GFP (poly-glycine-arginine, 50 repeats), transgenic mouse
T1 sequence: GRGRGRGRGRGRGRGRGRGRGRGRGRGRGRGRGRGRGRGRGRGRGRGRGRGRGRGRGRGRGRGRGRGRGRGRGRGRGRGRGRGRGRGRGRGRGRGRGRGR

T2: karyopherin β2 (Kapβ2), endogenous in mouse cortex and spinal cord (mouse (endogenous in cortex and spinal cord)) (UniProt Q8BFY9)
T2 sequence: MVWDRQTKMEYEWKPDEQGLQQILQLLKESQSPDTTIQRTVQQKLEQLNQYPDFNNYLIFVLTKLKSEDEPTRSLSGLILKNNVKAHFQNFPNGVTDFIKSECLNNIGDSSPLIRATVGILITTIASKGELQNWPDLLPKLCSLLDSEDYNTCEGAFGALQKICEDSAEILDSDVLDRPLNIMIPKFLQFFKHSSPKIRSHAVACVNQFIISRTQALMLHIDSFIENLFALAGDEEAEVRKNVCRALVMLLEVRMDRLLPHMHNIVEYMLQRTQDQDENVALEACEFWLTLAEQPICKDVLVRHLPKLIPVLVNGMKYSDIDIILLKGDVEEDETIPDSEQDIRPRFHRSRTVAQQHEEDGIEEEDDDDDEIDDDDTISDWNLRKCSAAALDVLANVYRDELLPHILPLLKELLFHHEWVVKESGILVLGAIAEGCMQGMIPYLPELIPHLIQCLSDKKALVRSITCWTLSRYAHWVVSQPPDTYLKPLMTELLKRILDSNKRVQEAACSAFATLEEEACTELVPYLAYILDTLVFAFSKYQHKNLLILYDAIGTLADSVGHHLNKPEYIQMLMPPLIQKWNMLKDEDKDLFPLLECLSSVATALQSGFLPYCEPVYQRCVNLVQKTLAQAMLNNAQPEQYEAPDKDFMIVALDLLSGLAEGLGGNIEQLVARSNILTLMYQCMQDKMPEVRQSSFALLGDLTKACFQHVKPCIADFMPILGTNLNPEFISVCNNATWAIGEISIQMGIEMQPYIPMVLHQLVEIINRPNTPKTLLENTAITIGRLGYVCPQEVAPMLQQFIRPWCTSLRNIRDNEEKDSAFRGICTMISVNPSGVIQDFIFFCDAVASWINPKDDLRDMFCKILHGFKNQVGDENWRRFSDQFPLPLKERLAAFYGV


Experiments:
[1] = molecular target: T1, Flag-GR50-GFP (poly-glycine-arginine, 50 repeats), transgenic mouse; assay: co-IP; anti-GFP antibody cross-linked to magnetic beads; cortex and spinal cord lysates of Flag-GR50-GFP mice; non-transgenic tissue and IgG as controls; western blot for GFP and Kapβ2
[2] = molecular target: T2, karyopherin β2 (Kapβ2), endogenous in mouse cortex and spinal cord (mouse (endogenous in cortex and spinal cord)); assay: co-IP; reverse co-IP: Kapβ2 antibody cross-linked to magnetic beads (double volume of beads); cortex and spinal cord lysates of Flag-GR50-GFP mice; western blot

Row | binding [1] | binding [2] | Binder
1 | binds | – | karyopherin β2 (Kapβ2), endogenous in mouse cortex and spinal cord (protein, UniProt Q8BFY9 1-898) MVWDRQTKMEYEWKPDEQGLQQILQLLKESQSPDTTIQRTVQQKLEQLNQYPDFNNYLIFVLTKLKSEDEPTRSLSGLILKNNVKAHFQNFPNGVTDFIKSECLNNIGDSSPLIRATVGILITTIASKGELQNWPDLLPKLCSLLDSEDYNTCEGAFGALQKICEDSAEILDSDVLDRPLNIMIPKFLQFFKHSSPKIRSHAVACVNQFIISRTQALMLHIDSFIENLFALAGDEEAEVRKNVCRALVMLLEVRMDRLLPHMHNIVEYMLQRTQDQDENVALEACEFWLTLAEQPICKDVLVRHLPKLIPVLVNGMKYSDIDIILLKGDVEEDETIPDSEQDIRPRFHRSRTVAQQHEEDGIEEEDDDDDEIDDDDTISDWNLRKCSAAALDVLANVYRDELLPHILPLLKELLFHHEWVVKESGILVLGAIAEGCMQGMIPYLPELIPHLIQCLSDKKALVRSITCWTLSRYAHWVVSQPPDTYLKPLMTELLKRILDSNKRVQEAACSAFATLEEEACTELVPYLAYILDTLVFAFSKYQHKNLLILYDAIGTLADSVGHHLNKPEYIQMLMPPLIQKWNMLKDEDKDLFPLLECLSSVATALQSGFLPYCEPVYQRCVNLVQKTLAQAMLNNAQPEQYEAPDKDFMIVALDLLSGLAEGLGGNIEQLVARSNILTLMYQCMQDKMPEVRQSSFALLGDLTKACFQHVKPCIADFMPILGTNLNPEFISVCNNATWAIGEISIQMGIEMQPYIPMVLHQLVEIINRPNTPKTLLENTAITIGRLGYVCPQEVAPMLQQFIRPWCTSLRNIRDNEEKDSAFRGICTMISVNPSGVIQDFIFFCDAVASWINPKDDLRDMFCKILHGFKNQVGDENWRRFSDQFPLPLKERLAAFYGV
2 | – | binds | Flag-GR50-GFP (poly-glycine-arginine, 50 repeats), transgenic mouse (protein) GRGRGRGRGRGRGRGRGRGRGRGRGRGRGRGRGRGRGRGRGRGRGRGRGRGRGRGRGRGRGRGRGRGRGRGRGRGRGRGRGRGRGRGRGRGRGRGRGRGR
